Results are given in words; binding and its absence hold for the method and conditions named. In cells and extracts the contact can be indirect.
These molecules were tested against MCMV M45 protein, HA-tagged, expressed by the recombinant virus MCMV M45-HA (murine cytomegalovirus (MCMV)) (UniProt Q06A28) (assay: co-IP; SVEC4-10 cells (WT, Ddx3x ko or Ubr5 ko) infected with MCMV m139-HA or M45-HA (MOI = 5 by the legends), lysed 24 hpi in NP-40 buffer; anti-HA affinity matrix; washes up to 500 mM NaCl; immunoblot).

The chains behind the UniProt entries cited, without tags or fusion partners.
UniProt Q06A28: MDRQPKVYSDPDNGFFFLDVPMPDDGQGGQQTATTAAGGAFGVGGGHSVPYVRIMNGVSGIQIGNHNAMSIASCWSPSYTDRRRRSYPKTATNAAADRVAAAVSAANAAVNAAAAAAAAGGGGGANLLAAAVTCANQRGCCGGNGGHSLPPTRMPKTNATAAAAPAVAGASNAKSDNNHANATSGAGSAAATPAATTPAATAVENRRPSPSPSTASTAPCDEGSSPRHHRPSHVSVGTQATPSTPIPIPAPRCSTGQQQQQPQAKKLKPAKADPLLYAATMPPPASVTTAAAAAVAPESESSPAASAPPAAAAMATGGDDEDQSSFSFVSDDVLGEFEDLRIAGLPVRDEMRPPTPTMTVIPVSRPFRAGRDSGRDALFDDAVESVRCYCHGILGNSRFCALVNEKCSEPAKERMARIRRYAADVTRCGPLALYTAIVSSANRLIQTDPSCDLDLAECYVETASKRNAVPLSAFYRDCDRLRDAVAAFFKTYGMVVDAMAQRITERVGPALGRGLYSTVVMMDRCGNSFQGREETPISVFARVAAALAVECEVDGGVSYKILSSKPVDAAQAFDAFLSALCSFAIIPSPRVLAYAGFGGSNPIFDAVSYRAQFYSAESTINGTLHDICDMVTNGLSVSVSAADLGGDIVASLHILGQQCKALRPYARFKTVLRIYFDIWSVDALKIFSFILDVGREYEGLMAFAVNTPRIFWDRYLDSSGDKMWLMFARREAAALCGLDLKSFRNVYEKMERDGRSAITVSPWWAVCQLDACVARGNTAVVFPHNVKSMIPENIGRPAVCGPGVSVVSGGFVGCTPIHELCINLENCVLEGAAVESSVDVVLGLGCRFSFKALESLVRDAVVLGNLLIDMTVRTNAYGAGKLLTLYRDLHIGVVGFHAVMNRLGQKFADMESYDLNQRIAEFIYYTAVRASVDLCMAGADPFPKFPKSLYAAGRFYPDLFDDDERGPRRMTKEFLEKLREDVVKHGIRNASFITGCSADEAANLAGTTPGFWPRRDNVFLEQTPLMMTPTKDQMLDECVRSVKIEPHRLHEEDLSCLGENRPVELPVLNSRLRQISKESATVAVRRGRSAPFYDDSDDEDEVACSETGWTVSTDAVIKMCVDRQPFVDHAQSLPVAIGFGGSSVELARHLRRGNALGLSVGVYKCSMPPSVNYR
UniProt Q62167: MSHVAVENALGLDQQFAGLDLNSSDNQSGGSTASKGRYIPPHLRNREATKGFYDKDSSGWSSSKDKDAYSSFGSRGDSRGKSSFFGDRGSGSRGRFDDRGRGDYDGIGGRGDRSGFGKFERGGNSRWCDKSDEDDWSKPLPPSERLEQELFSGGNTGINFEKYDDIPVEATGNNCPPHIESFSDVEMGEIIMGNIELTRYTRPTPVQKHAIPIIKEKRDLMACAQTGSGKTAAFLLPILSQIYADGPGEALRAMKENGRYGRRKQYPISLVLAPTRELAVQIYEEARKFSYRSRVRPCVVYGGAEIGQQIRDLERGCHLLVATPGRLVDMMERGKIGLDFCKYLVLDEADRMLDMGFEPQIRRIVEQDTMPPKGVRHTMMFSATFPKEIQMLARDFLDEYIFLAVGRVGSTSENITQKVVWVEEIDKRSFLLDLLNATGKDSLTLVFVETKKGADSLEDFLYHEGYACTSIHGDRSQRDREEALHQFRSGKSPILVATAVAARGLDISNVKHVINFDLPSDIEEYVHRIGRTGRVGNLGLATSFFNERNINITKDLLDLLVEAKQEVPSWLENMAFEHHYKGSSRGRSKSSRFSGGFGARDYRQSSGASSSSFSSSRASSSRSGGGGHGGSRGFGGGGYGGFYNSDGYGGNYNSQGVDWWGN
UniProt Q80TP3: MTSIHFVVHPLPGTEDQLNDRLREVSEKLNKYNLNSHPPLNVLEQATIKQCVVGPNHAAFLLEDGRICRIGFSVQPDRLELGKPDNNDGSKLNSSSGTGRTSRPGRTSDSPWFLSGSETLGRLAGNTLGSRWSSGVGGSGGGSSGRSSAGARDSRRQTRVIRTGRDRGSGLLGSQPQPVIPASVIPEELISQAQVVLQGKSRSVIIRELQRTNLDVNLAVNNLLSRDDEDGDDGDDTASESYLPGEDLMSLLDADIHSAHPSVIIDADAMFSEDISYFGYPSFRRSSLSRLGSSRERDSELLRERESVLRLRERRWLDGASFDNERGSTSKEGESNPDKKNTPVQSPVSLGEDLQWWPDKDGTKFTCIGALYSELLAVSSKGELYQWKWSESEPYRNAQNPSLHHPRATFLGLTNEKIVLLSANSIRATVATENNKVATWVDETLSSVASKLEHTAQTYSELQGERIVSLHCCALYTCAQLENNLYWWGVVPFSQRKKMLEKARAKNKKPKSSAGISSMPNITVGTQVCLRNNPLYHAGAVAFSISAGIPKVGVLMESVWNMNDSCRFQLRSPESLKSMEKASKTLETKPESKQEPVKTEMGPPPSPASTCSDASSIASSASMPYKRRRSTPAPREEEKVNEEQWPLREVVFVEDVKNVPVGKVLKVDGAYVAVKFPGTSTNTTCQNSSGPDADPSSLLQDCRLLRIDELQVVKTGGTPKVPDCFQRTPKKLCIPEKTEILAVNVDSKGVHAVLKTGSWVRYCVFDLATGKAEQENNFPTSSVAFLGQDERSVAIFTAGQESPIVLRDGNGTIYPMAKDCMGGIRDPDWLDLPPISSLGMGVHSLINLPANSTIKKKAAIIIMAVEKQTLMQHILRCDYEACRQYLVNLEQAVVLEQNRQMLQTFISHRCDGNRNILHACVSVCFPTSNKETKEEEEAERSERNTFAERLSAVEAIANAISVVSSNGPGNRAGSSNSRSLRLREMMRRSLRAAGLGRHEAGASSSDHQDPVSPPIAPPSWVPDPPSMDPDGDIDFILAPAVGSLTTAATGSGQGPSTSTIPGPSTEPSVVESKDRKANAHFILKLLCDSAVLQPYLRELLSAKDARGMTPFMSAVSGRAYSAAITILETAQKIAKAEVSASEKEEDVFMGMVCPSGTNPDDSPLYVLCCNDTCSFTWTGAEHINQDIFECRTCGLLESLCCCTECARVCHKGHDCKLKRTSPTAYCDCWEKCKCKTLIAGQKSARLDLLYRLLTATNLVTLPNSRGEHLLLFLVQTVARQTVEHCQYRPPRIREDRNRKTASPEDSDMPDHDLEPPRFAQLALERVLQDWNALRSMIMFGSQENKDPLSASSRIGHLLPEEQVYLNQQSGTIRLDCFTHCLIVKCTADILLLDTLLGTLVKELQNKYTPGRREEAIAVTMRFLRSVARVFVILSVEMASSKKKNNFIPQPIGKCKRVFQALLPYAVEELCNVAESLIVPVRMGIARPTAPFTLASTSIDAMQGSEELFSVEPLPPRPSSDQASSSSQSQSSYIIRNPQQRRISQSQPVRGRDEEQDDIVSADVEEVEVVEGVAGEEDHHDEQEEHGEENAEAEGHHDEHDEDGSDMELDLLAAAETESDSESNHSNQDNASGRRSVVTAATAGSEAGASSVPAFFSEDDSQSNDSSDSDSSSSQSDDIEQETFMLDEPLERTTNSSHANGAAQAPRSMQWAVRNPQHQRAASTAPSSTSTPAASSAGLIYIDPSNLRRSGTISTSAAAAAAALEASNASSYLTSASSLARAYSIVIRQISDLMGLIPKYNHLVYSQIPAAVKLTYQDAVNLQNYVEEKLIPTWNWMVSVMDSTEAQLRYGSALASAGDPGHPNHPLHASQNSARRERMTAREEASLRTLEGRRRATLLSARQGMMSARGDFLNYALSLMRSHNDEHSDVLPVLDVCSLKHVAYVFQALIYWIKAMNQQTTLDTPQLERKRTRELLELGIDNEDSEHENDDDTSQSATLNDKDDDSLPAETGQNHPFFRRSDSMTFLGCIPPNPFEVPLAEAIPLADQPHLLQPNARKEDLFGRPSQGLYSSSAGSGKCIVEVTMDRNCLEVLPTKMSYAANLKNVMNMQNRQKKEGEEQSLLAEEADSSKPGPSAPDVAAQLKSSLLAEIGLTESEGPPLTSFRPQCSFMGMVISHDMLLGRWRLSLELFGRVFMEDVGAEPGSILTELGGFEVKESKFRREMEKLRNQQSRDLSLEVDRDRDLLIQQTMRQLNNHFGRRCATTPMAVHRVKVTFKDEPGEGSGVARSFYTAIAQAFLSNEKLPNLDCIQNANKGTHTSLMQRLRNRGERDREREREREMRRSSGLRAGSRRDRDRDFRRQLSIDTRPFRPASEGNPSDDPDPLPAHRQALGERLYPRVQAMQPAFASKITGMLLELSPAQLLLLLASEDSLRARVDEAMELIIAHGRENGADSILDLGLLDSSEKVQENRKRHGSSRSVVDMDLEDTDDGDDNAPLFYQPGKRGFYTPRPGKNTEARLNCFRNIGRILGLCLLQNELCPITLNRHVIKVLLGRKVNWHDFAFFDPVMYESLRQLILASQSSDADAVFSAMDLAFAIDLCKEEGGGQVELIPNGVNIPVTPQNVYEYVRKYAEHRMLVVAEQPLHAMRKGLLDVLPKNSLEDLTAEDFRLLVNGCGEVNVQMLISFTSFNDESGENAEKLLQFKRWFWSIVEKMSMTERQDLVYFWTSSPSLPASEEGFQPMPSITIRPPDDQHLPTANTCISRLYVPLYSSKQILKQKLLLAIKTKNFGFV

Molecule	binding
ATP-dependent RNA helicase DDX3 (DDX3X), mouse, endogenous (from UniProt Q62167 1-662)	no binding
E3 ubiquitin-protein ligase UBR5, mouse, endogenous (from UniProt Q80TP3 1-2792)	no binding
Interferon-induced protein with tetratricopeptide repeats 1 (IFIT1), mouse, endogenous (protein, UniProt Q64282 1-463) MGENADGDQVMENLLQLRCHFTWKLLFENNDIPDLEVRISEQVQFLDIKNPLGMHNLLAYVRHLKGQQDEALQSLKEAEALIQSEQLSKRSLATWGNCAWLHYHRGSLAEAQIYLDKVEKVCKEFSSPFRYRLECAEMDCEEGWALLKCGGGNYKQAMACFAKALKVEPENPEYNTGYAVVAYRQDLDDNFISLEPLRKAVRLNPEDPYLKVLLALKLQDLGEHVEAEAHIEEALSSTSCQSYVIRYAAKYFRRKHRVDKALHLLNRALQASPSSGYLHYQKGLCYKQQISQLRTSRNRQPRRQDNVQELAQQAIHEFQETLKLRPTFEMAYVCMAEVQAEIHQYEEAERNFQKALNNKTLVAHIEQDIHLRYGRFLQFHKQSEDKAITLYLKGLKVEEKSFAWRKLLTALEKVAERRVCQNVHLVESTSLLGLVYKLKGQEKNALFYYEKALRLTGEMNPAF	no binding
